Reference: PubChem BioAssay AID504444 (National Center for Advancing Translational Sciences (NCATS), 2011)
Screen size: about 360,000 compounds; about 7,500 (2.1%) were called active. Inconclusive results, whose numbers are uncertain, are shown with a selection of clear calls. Calls come from the whole dose curve; as a rule, active = well fitted inhibition curve with a large enough effect; inconclusive = small, poorly fitted or top-dose-only effect, or effect the other way; inactive = flat fitted curve, though single readings scatter. Potencies of inconclusive entries are doubtful fits and often do not repeat.

Assay: Nrf2 qHTS screen for inhibitors; note: nearly all actives have a fitted effect of over 60% in size
Settings: A549 ARE-Fluc reporter, luciferase luminescence, 18-24 h; activity change, negative = inhibition: at 46 µM (top of the series)
Method in brief: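 Two sequential reads on A549 ARE_Fluc cells exposed to compound for 18-24 h: a CellTiter-Fluor fluorescence read for viability, then a luciferase luminescence read for Nrf2/ARE activity.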
% is set by controls: 0 for no effect and ±100 for the full control effect; potency is the fitted concentration of half-maximal effect.

| Structure (SMILES) | Potency | activity change, negative = inhibition |
| --- | --- | --- |
| CNc1oc(/C=C/c2cc(OC)c(OC)c(OC)c2)nc1C#N | inconclusive: 23.1 µM [falling, single point] | – |
| O=C(NC(=O)c1ccc(Cl)cc1)OC1CCCCC1 | inconclusive: 18.4 µM [activator, single point] | – |
| Cc1ccc(-c2nc3c(C)cccn3c2Nc2ccccc2C)s1 | inconclusive: 18.4 µM [activator, partial curve] | – |
| O=c1oc2ccccc2cc1-c1cn2cccnc2n1 | inconclusive: 1.84 µM [activator, partial curve] | – |
| O=C(CN1CCN(S(=O)(=O)c2ccccc2)CC1)Nc1cccc(C(F)(F)F)c1 | – | inactive: -17.2% |
| Cc1ccccc1OCCCn1c(CO)nc2ccccc21 | – | inactive: 3.77% |
| CCOc1cc(C(=S)N2CCCCC2)ccc1OS(=O)(=O)c1ccc(Cl)cc1 | inconclusive: 18.4 µM [falling, single point] | – |
| Cc1ccc2c(c1)COc1c3ccc(C(=O)N4CCOCC4)cc3nn1-2 | inconclusive: 25.9 µM [activator, single point] | – |
| CC1=C(C(=O)Nc2cccc(F)c2)C(c2ccsc2)C2=C(CC(C)(C)CC2=O)N1 (stereo not drawn) | – | inactive: 16.1% |
| CSCC(=O)N1CCCC(CO)(Cc2ccccc2C)C1 (stereo not drawn) | – | inactive: 0.389% |
| C#CC1CN(Cc2ccccc2)CC(C#C)N1C (stereo not drawn) | inconclusive: 3.26 µM [falling, partial curve, poor fit] | – |
| Cc1ccc2nc(-c3ccccc3N)[nH]c2c1 | inconclusive: 6.51 µM [activator, partial curve] | – |
| CCc1ccc(C(=O)Nn2cnc3ccccc3c2=O)cc1 | inconclusive: 23.1 µM [activator, partial curve] | – |
| COc1ccc(C2=C(C)C(=O)N(Cc3ccc(C(=O)Nc4cccc(F)c4)cc3)S2(=O)=O)cc1 | inconclusive: 18.4 µM [falling, single point] | – |
| CC1CCCN(c2nc3c(S(=O)(=O)c4ccc(C(C)C)cc4)nnn3c3ccsc23)C1 (stereo not drawn) | inconclusive: 29.1 µM [activator, single point] | – |
| CN(C)CCCN(C(=O)c1ccco1)c1nc2cc3c(cc2s1)OCO3 | inconclusive: 1.84 µM [falling, full curve, poor fit] | – |
| COc1ccc(-c2c(C#N)c(N)nc3c2CCc2ccccc2-3)cc1OC | inconclusive: 29.1 µM [falling, single point] | – |
| N#CCCn1cc(/C=C2\NC(=S)N(c3ccccc3)C2=O)c(-c2ccc(F)cc2)n1 | inconclusive: 13 µM [falling, partial curve, poor fit] | – |
| COC(=O)c1cccc(OCC(O)Cn2ccnc2)c1 (stereo not drawn) | inconclusive: 0.461 µM [activator, full curve, poor fit] | – |
| COc1ccc(CN(C)C(=O)CNC(=O)c2ccc3ccccc3c2)c(OC)c1 | inconclusive: 20.6 µM [falling, single point] | – |
| CCn1ccc(C(=O)Nc2ccc(Cl)cn2)n1 | inconclusive: 29.1 µM [activator, single point] | – |
| Cc1csc(SC(C)c2nc3scc(-c4ccccc4)c3c(=O)[nH]2)n1 (stereo not drawn) | inconclusive: 20.6 µM [falling, single point] | – |

| Structure (SMILES) | Potency | activity change, negative = inhibition |
| --- | --- | --- |
| CCOc1ccc(CNc2ccc(N3CCN(Cc4ccccc4)CC3)cc2)cc1 | inconclusive: 14.6 µM [falling, partial curve, poor fit] | – |
| O=C(Cn1cnc2ccccc21)Nc1cccc(S(=O)(=O)N2CCCC2)c1 | active: 5.8 µM | – |
| CCS(=O)(=O)N1CCN(C(=O)c2cccc(OC)c2)CC1 | inconclusive: 1.46 µM [falling, partial curve, poor fit] | – |
| O=C(COc1ccccc1)NCc1ccc2c(c1)OCO2 | inconclusive: 8.2 µM [activator, partial curve] | – |
| Cc1cnc(NC(=O)C2CC(=O)N(c3ccc4c(c3)OCCO4)C2)s1 (stereo not drawn) | – | inactive: 14.4% |
| C=CCn1c(C)cc(C(=O)Cn2nc(C(=O)O)c3ccccc3c2=O)c1C | active: 14.6 µM | – |
| O=C(Nc1nnc(CSCc2ccc(F)cc2)s1)c1cccc([N+](=O)[O-])c1 | active: 18.4 µM | – |
| CC1CC=CC2C1C(=O)N(Cc1ccccc1)C2c1ccc(/C=C/c2ccccc2)cc1F (stereo not drawn) | – | inactive: -24.4% |
| S=c1[nH]nc(-c2ccc(Cl)cc2Cl)n1-c1ccc2c(c1)OCCO2 | inconclusive: 10.3 µM [activator, partial curve] | – |
| CC(=O)N(CN1C(=O)CCC1=O)c1ccc(Cl)c(Cl)c1 | inconclusive: 16.4 µM [activator, partial curve] | – |
| CC1Cc2nc(SCC(=O)Nc3nccs3)n(Cc3ccccc3)c(=O)c2S1 (stereo not drawn) | inconclusive: 2.91 µM [falling, full curve] | – |
| CCCCS(=O)CC(O)COc1ccc(C(C)(C)C)cc1 (stereo not drawn) | inconclusive: 25.9 µM [falling, partial curve, poor fit] | – |
| COc1cccc(CN2C(=O)c3ccccc3Sc3ccc(C(=O)NCCc4ccc(C)cc4)cc32)c1 | – | inactive: -26% |
| O=[N+]([O-])c1ccccc1/C=N/N1CCN(c2ccncc2S(=O)(=O)N2CCCCC2)CC1 | inconclusive: 25.9 µM [falling, partial curve, poor fit] | – |
| O=C(CC(c1ccco1)S(=O)(=O)c1ccccc1)c1ccc(F)cc1 (stereo not drawn) | – | inactive: -4.64% |
| Cc1nn(CCOc2ccccc2)c(=O)n1-c1ccccc1F | inconclusive: 6.51 µM [activator, full curve, poor fit] | – |
| CC1CCN(S(=O)(=O)c2cccc(C(=O)Nc3ccccc3)c2)CC1 | inconclusive: 25.9 µM [falling, partial curve, poor fit] | – |
| Cc1oc(=O)c(NC(=O)c2cccc(Cl)c2)cc1C(=O)c1ccccc1 | inconclusive: 6.51 µM [activator, single point] | – |
| O=C(NCc1ccccc1)C1CCCN(c2ncnc3c2nc2n3CCCCC2)C1 (stereo not drawn) | inconclusive: 29.1 µM [falling, single point] | – |
| COc1ccc(-n2nnnc2Sc2ccc(S(=O)(=O)N3CCOCC3)cn2)cc1 | inconclusive: 2.91 µM [activator, single point] | – |
| O=C1c2ccccc2C(=O)N1CCc1ccccc1 | inconclusive: 7.31 µM [activator, partial curve] | – |

Quoted from the entries so far for reference:

| Structure (SMILES) | Potency | activity change, negative = inhibition |
| --- | --- | --- |
| CCOc1ccc(CNc2ccc(N3CCN(Cc4ccccc4)CC3)cc2)cc1 | inconclusive: 14.6 µM [falling, partial curve, poor fit] | – |
| O=C(Cn1cnc2ccccc21)Nc1cccc(S(=O)(=O)N2CCCC2)c1 | active: 5.8 µM | – |
